Test results reported in patent publication US11478011B2, “Nutritional compositions and infant formula for promoting de novo myealination” (NESTEC S.A., priority 2015, dated 2022).
Some of these results come from one statement about several compounds together. At least one compound was matched to its structure with a doubt left.

Test system: brain myelination (myelin water fraction) of children up to 5 years of age
Assay: Correlation analysis between infant formula nutrient composition and brain myelination (mcDESPOT MRI myelin water fraction)
Format: in vivo, human
Conditions: formula-fed children up to 5 years; significance p<0.05 cluster corrected, association or trend p<0.15
Protocol: MRI (Magnetic Resonance Imaging): MRI brain scans of infants and children between 0 and 5 years were acquired using a white matter imaging technique. This technique provides a quantitative measure, the Myelin Water Fraction (MWF), which is a surrogate marker of myelin content in the brain. When mapped as a function of time across early childhood, myelination trajectories can be generated.
Infant formula composition: six infant formulas fed to infants participating in a study were analyzed for their composition/level of myelin-relevant nutrients.
Infants included in this study were drawn from a larger longitudinal study of normal brain and behavioral development: the Brown University Assessment of Myelination and Behavior Across Maturation (BAMBAM). To focus on neurotypical development, children with known potential risk factors for learning, neurologic, or psychiatric disorders were specifically excluded during recruitment and enrollment. […]
Each infant was scanned using the mcDESPOT (multicomponent Driven Equilibrium Single Pulse Observation of T1 and T2) white matter imaging technique Deoni et al. (Magn. Reson. Med. 2008, 60:1372-1387), which provides a quantitative measure of the myelin water fraction (MWF)—a measure of myelin content—at each point throughout the brain. […]

[Zn] [zinc]
P of Spearman rank correlation between nutrient content and myelin content value (adjusted for child age): < 0.15
